# Measured values from publication PMC11664589 (2024).
# B1: MYC[1-84]-MeNbz-Arg6 (peptide, UniProt P01106 1-84, looked up, fragment)
# chain: MDFFRVVENQQPPATMPLNVSFTNRNYDLDYDSVQPYFYCDEEENFYQQQQQSELQPPAPSEDIWKKFELLPTPPLSPSRRSGL
# modifications: SynTag, thioester
# Assay: general procedure: Fmoc solid-phase peptide synthesis in flow; PEG resin; Rink amide, HMPB, photolinker or MeDbz linker
# Details: whole synthesis, isolated yield after HPLC
molecule,measurement,value
B1,isolated yield,0.5%
